Measurements reported in patent US20050037969A1.

These binders were tested against GST-TIP-1 PDZ domain fusion protein (Homo sapiens) (assay: G assay, various concentrations of 20-mer peptide on Tax1-IP GST/PDZ fusion).

Binder	binding
KDITSDSENSNFRNEIQSLV (biotin at the amino-terminus) [CD95 (Fas) C-terminal peptide AA13L, biotinylated]	binds

The binders below were run against GST-NeDLG fusion protein (PDZ domains 1-2) (Mus musculus (Mouse)) (assay: G assay titration on plate-bound GST-PDZ fusion; GST-alone signal subtracted, normalised to the highest point (P-0050)).

Binder	binding
KDITSDSENSNFRNEIQSLV (biotin at the amino-terminus) [CD95 (Fas) C-terminal peptide AA13L, biotinylated]	binds
ISGTPTSTMVHGMTSSSSVV (biotin at the amino-terminus) [Clasp-2 C-terminal peptide AA2L, biotinylated]	binds

The binders below were run against GST-DLG1 fusion protein (PDZ domains 1-2) (human) in the same assay as above.

Binder	binding
ISGTPTSTMVHGMTSSSSVV (biotin at the amino-terminus) [Clasp-2 C-terminal peptide AA2L, biotinylated]	binds

Each binder was assayed against GST-DLG1 fusion protein (PDZ domains 1-2) (human) (assay: A assay and G assay).

Binder	binding
ISGTPTSTMVHGMTSSSSVV (biotin at the amino-terminus) [Clasp-2 C-terminal peptide AA2L, biotinylated]	binds

The binders below were run against GST-DLG1 fusion protein (PDZ domains 1-2) (human) (assay: G assay competition, 100 uM competitor against 20 uM labeled Clasp 2 peptide).

Binder	binding
REVKFTSL [CD46 8-mer competitor peptide REVKFTSL (unlabeled)]	binds
RNEIQSLV [Fas (CD95) 8-mer competitor peptide RNEIQSLV (unlabeled)]	binds

What follows are binders tested against GST-DLG1 fusion protein (PDZ domains 1-2) (human) (assay: G assay competition on plate-bound GST-DLG1, competitor at 100 uM; blocked ligands: biotinylated Clasp 2 and CD46 (20 uM), Fas and KV1.3 (10 uM) peptides).

Binder	binding
REVKFTSL [CD46 8-mer competitor peptide REVKFTSL (unlabeled)]	binds
RNEIQSLV [Fas (CD95) 8-mer competitor peptide RNEIQSLV (unlabeled)]	binds

Each binder was assayed against GST-TIP-1 PDZ domain fusion protein (Homo sapiens) (assay: PRISM MATRIX, told in text).

Binder	binding
KDITSDSENSNFRNEIQSLV (biotin at the amino-terminus) [CD95 (Fas) C-terminal peptide AA13L, biotinylated]	binds

The binders below were run against GST-WWP3 (MAGI-1) fusion protein (PDZ domains 1-2) (Homo sapiens) (assay: PRISM MATRIX, told in text).

Binder	binding
TREDIYVNYPTFSRRPKTRV (biotin at the amino-terminus) [DNAM-1 C-terminal peptide AA22L, biotinylated]	binds

The binders below were run against GST-TIP-1 PDZ domain fusion protein (Homo sapiens) (assay: G assay on GST-TIP-1 (Tax 1-IP), 20 uM labeled peptide).

Binder	binding
KDITSDSENSNFRNEIQSLV (biotin at the amino-terminus) [CD95 (Fas) C-terminal peptide AA13L, biotinylated]	binds

The binders below were run against GST-NeDLG fusion protein (PDZ domains 1-2) (Mus musculus (Mouse)) (assay: G assay: biotinylated peptide on plate-bound GST-PDZ fusion, streptavidin-HRP, OD 450 nm).

Binder	binding
LASKSAEEGKQIPDSLSTDL (biotin at the amino-terminus) [DOCK2 C-terminal peptide AA40L, biotinylated]	binds
ISKATPALPTVSISSSAEV (biotin at the amino-terminus) [Clasp-1 C-terminal peptide AA1L, biotinylated]	binds
KKGTYLTDETHREVKFTSL (biotin at the amino-terminus) [CD46 (Form 1) C-terminal peptide AA10L, biotinylated]	binds
KDITSDSENSNFRNEIQSLV (biotin at the amino-terminus) [CD95 (Fas) C-terminal peptide AA13L, biotinylated]	binds
ISGTPTSTMVHGMTSSSSVV (biotin at the amino-terminus) [Clasp-2 C-terminal peptide AA2L, biotinylated]	binds
TTNNNPNSAVNIKKIFTDV (biotin at the amino-terminus) [KV1.3 C-terminal peptide AA33L, biotinylated]	binds

The binders below were run against GST-DLG1 fusion protein (PDZ domains 1-2) (human) in the same assay as above.

Binder	binding
LASKSAEEGKQIPDSLSTDL (biotin at the amino-terminus) [DOCK2 C-terminal peptide AA40L, biotinylated]	binds
ISKATPALPTVSISSSAEV (biotin at the amino-terminus) [Clasp-1 C-terminal peptide AA1L, biotinylated]	binds
KKGTYLTDETHREVKFTSL (biotin at the amino-terminus) [CD46 (Form 1) C-terminal peptide AA10L, biotinylated]	binds
ISGTPTSTMVHGMTSSSSVV (biotin at the amino-terminus) [Clasp-2 C-terminal peptide AA2L, biotinylated]	binds
TTNNNPNSAVNIKKIFTDV (biotin at the amino-terminus) [KV1.3 C-terminal peptide AA33L, biotinylated]	binds

The binders below were run against GST-NeDLG fusion protein (PDZ domains 1-2) (Mus musculus (Mouse)) (assay: A/G plate assays, Table 2 matrix).

Binder	binding
LASKSAEEGKQIPDSLSTDL (biotin at the amino-terminus) [DOCK2 C-terminal peptide AA40L, biotinylated]	binds
ISKATPALPTVSISSSAEV (biotin at the amino-terminus) [Clasp-1 C-terminal peptide AA1L, biotinylated]	binds
KKGTYLTDETHREVKFTSL (biotin at the amino-terminus) [CD46 (Form 1) C-terminal peptide AA10L, biotinylated]	binds
KDITSDSENSNFRNEIQSLV (biotin at the amino-terminus) [CD95 (Fas) C-terminal peptide AA13L, biotinylated]	binds
ISGTPTSTMVHGMTSSSSVV (biotin at the amino-terminus) [Clasp-2 C-terminal peptide AA2L, biotinylated]	binds
TTNNNPNSAVNIKKIFTDV (biotin at the amino-terminus) [KV1.3 C-terminal peptide AA33L, biotinylated]	binds
ARHRVTSYTSSSVNVSSNL (biotin at the amino-terminus) [CDW128A (IL8RA) C-terminal peptide AA29.1L, biotinylated]	binds
KDSRPSFVGSSSGHTSTTL (biotin at the amino-terminus) [CDW128B (IL8RB) C-terminal peptide AA29.2L, biotinylated]	binds
TREDIYVNYPTFSRRPKTRV (biotin at the amino-terminus) [DNAM-1 C-terminal peptide AA22L, biotinylated]	binds

These binders were tested against GST-DLG1 fusion protein (PDZ domains 1-2) (human) (assay: A/G plate assays, Table 2 matrix).

Binder	binding
LASKSAEEGKQIPDSLSTDL (biotin at the amino-terminus) [DOCK2 C-terminal peptide AA40L, biotinylated]	binds
ISKATPALPTVSISSSAEV (biotin at the amino-terminus) [Clasp-1 C-terminal peptide AA1L, biotinylated]	binds
KKGTYLTDETHREVKFTSL (biotin at the amino-terminus) [CD46 (Form 1) C-terminal peptide AA10L, biotinylated]	binds
ISGTPTSTMVHGMTSSSSVV (biotin at the amino-terminus) [Clasp-2 C-terminal peptide AA2L, biotinylated]	binds
TTNNNPNSAVNIKKIFTDV (biotin at the amino-terminus) [KV1.3 C-terminal peptide AA33L, biotinylated]	binds
KDSRPSFVGSSSGHTSTTL (biotin at the amino-terminus) [CDW128B (IL8RB) C-terminal peptide AA29.2L, biotinylated]	binds
TREDIYVNYPTFSRRPKTRV (biotin at the amino-terminus) [DNAM-1 C-terminal peptide AA22L, biotinylated]	binds

What follows are binders tested against GST-TIP-1 PDZ domain fusion protein (Homo sapiens) (assay: A/G plate assays, Table 2 matrix).

Binder	binding
KDITSDSENSNFRNEIQSLV (biotin at the amino-terminus) [CD95 (Fas) C-terminal peptide AA13L, biotinylated]	binds
TTNNNPNSAVNIKKIFTDV (biotin at the amino-terminus) [KV1.3 C-terminal peptide AA33L, biotinylated]	binds

Each binder was assayed against GST-LIMK1 PDZ domain fusion protein (human) (assay: A/G plate assays, Table 2 matrix).

Binder	binding
TTNNNPNSAVNIKKIFTDV (biotin at the amino-terminus) [KV1.3 C-terminal peptide AA33L, biotinylated]	binds

What follows are binders tested against GST-KIAA0561 PDZ domain fusion protein (human) (assay: A/G plate assays, Table 2 matrix).

Binder	binding
LASKSAEEGKQIPDSLSTDL (biotin at the amino-terminus) [DOCK2 C-terminal peptide AA40L, biotinylated]	binds

Each binder was assayed against GST-WWP3 (MAGI-1) fusion protein (PDZ domains 1-2) (Homo sapiens) (assay: A/G plate assays, Table 2 matrix).

Binder	binding
TREDIYVNYPTFSRRPKTRV (biotin at the amino-terminus) [DNAM-1 C-terminal peptide AA22L, biotinylated]	binds

The binders below were run against GST-MPP2 PDZ domain fusion protein (Homo sapiens) (assay: A/G plate assays, Table 2 matrix).

Binder	binding
TREDIYVNYPTFSRRPKTRV (biotin at the amino-terminus) [DNAM-1 C-terminal peptide AA22L, biotinylated]	binds

What follows are binders tested against GST-NeDLG fusion protein (PDZ domains 1-2) (Mus musculus (Mouse)) (assay: A/G assays, told in text).

Binder	binding
LASKSAEEGKQIPDSLSTDL (biotin at the amino-terminus) [DOCK2 C-terminal peptide AA40L, biotinylated]	binds
ISKATPALPTVSISSSAEV (biotin at the amino-terminus) [Clasp-1 C-terminal peptide AA1L, biotinylated]	binds
KKGTYLTDETHREVKFTSL (biotin at the amino-terminus) [CD46 (Form 1) C-terminal peptide AA10L, biotinylated]	binds
KDITSDSENSNFRNEIQSLV (biotin at the amino-terminus) [CD95 (Fas) C-terminal peptide AA13L, biotinylated]	binds
ISGTPTSTMVHGMTSSSSVV (biotin at the amino-terminus) [Clasp-2 C-terminal peptide AA2L, biotinylated]	binds
TTNNNPNSAVNIKKIFTDV (biotin at the amino-terminus) [KV1.3 C-terminal peptide AA33L, biotinylated]	binds
ARHRVTSYTSSSVNVSSNL (biotin at the amino-terminus) [CDW128A (IL8RA) C-terminal peptide AA29.1L, biotinylated]	binds
KDSRPSFVGSSSGHTSTTL (biotin at the amino-terminus) [CDW128B (IL8RB) C-terminal peptide AA29.2L, biotinylated]	binds
TREDIYVNYPTFSRRPKTRV (biotin at the amino-terminus) [DNAM-1 C-terminal peptide AA22L, biotinylated]	binds

Each binder was assayed against GST-DLG1 fusion protein (PDZ domains 1-2) (human) (assay: A/G assays, told in text).

Binder	binding
LASKSAEEGKQIPDSLSTDL (biotin at the amino-terminus) [DOCK2 C-terminal peptide AA40L, biotinylated]	binds
ISKATPALPTVSISSSAEV (biotin at the amino-terminus) [Clasp-1 C-terminal peptide AA1L, biotinylated]	binds
KKGTYLTDETHREVKFTSL (biotin at the amino-terminus) [CD46 (Form 1) C-terminal peptide AA10L, biotinylated]	binds
ISGTPTSTMVHGMTSSSSVV (biotin at the amino-terminus) [Clasp-2 C-terminal peptide AA2L, biotinylated]	binds
TTNNNPNSAVNIKKIFTDV (biotin at the amino-terminus) [KV1.3 C-terminal peptide AA33L, biotinylated]	binds
KDSRPSFVGSSSGHTSTTL (biotin at the amino-terminus) [CDW128B (IL8RB) C-terminal peptide AA29.2L, biotinylated]	binds
TREDIYVNYPTFSRRPKTRV (biotin at the amino-terminus) [DNAM-1 C-terminal peptide AA22L, biotinylated]	binds

These binders were tested against GST-TIP-1 PDZ domain fusion protein (Homo sapiens) (assay: A/G assays, told in text).

Binder	binding
KDITSDSENSNFRNEIQSLV (biotin at the amino-terminus) [CD95 (Fas) C-terminal peptide AA13L, biotinylated]	binds
TTNNNPNSAVNIKKIFTDV (biotin at the amino-terminus) [KV1.3 C-terminal peptide AA33L, biotinylated]	binds

What follows are binders tested against GST-LIMK1 PDZ domain fusion protein (human) (assay: A/G assays, told in text).

Binder	binding
TTNNNPNSAVNIKKIFTDV (biotin at the amino-terminus) [KV1.3 C-terminal peptide AA33L, biotinylated]	binds

These binders were tested against GST-KIAA0561 PDZ domain fusion protein (human) (assay: A/G assays, told in text).

Binder	binding
LASKSAEEGKQIPDSLSTDL (biotin at the amino-terminus) [DOCK2 C-terminal peptide AA40L, biotinylated]	binds

The binders below were run against GST-WWP3 (MAGI-1) fusion protein (PDZ domains 1-2) (Homo sapiens) (assay: A/G assays, told in text).

Binder	binding
TREDIYVNYPTFSRRPKTRV (biotin at the amino-terminus) [DNAM-1 C-terminal peptide AA22L, biotinylated]	binds

Each binder was assayed against GST-MPP2 PDZ domain fusion protein (Homo sapiens) (assay: A/G assays, told in text).

Binder	binding
TREDIYVNYPTFSRRPKTRV (biotin at the amino-terminus) [DNAM-1 C-terminal peptide AA22L, biotinylated]	binds

No constants are given. Whether binding was seen depends on the method and setting. A result given as binding can be weak or reduced; the word gives no strength.
